Test results: article doi:10.1101/2025.11.28.691129
Results are given in words; binding and its absence hold for the method and conditions named. In cells and extracts the contact can be indirect.

Sequences of proteins named here, by UniProt entry; tags and fusion partners are left off. Residues count along the entry.
UniProt P01589, residues 22-272: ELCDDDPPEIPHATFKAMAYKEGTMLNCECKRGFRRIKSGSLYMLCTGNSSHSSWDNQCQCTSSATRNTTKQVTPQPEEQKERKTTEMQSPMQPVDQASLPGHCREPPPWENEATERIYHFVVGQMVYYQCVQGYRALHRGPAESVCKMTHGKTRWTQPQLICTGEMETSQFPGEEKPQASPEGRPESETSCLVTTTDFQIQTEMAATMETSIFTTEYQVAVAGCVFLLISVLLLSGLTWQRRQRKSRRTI
UniProt P01133, residues 971-1023: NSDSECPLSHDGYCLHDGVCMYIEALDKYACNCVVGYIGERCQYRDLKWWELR

Target: mScarlet3-IL-2Rα (interleukin-2 receptor α chain, N-terminally tagged with mScarlet3) (UniProt P01589)
Assay: FRET or BRET

binding: no binding
Substance: eGFP-sEGF (soluble EGF, N-terminally tagged with eGFP) (from UniProt P01133) (ligand)
